Assay results taken from patent publication US20230265432A1, “METHODS AND COMPOSITIONS FOR TREATING ACUTE MYELOID LEUKEMIA” (Sanford Burnham Prebys Medical Discovery Institute, priority 2021, published 2023).
No constants are given. Whether binding was seen depends on the method and setting. Binding seen in cells or lysates may run through a third protein. Some entries that bind do so weakly or less than the wild type.

By UniProt entry, the sequences of proteins in these tests, tags left out. Where a name states a change or a piece, a line headed by the entry shows the natural chain unless it says otherwise. Chains listed by the source or under a name are the forms on record and can include a tag or linker. Residues count along the entry.
UniProt Q09028: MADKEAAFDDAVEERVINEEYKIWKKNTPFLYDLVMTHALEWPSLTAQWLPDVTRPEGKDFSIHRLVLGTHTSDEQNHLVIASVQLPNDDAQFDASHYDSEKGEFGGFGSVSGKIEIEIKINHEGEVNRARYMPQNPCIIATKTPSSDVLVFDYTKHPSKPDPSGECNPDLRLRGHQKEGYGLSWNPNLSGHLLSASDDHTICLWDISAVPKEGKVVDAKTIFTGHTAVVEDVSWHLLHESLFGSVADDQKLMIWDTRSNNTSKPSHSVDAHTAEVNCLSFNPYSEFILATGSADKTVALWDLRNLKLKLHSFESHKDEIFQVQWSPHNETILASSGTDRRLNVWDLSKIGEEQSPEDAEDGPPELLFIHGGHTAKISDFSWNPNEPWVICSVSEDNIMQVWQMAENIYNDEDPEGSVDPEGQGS
endogenous retinoblastoma binding protein 4 (RBBP4): residues 2-425 of Q09028
UniProt Q99942: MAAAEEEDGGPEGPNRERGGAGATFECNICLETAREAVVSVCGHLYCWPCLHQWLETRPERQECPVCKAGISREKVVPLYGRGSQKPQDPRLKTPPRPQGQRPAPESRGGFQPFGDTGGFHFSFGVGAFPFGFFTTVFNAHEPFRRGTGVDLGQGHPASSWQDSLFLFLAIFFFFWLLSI
Flag-tagged RNF5 catalytically inactive RING domain mutant (RM) (Q99942, form named): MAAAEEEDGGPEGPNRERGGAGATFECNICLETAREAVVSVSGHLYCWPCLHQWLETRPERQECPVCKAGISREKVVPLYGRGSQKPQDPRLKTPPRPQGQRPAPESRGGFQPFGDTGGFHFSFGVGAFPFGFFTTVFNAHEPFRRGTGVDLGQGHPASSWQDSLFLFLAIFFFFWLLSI

Assays:
[1] = target: endogenous retinoblastoma binding protein 4 (RBBP4) (human) (UniProt Q09028); assay: co-immunoprecipitation (IP: Flag) and Western blot for endogenous RBBP4, HEK293T, MG132
[2] = target: endogenous retinoblastoma binding protein 4 (RBBP4) (human) (UniProt Q09028); assay: co-immunoprecipitation, HEK293T cells expressing Flag-tagged RNF5 constructs, Western blot (FIG. 6B)
[3] = target: endogenous retinoblastoma binding protein 4 (RBBP4) (human) (UniProt Q09028); assay: anti-Flag immunoprecipitation of Flag-RNF5-expressing versus control MOLM-13 cells, LC-MS/MS
[4] = target: endogenous retinoblastoma binding protein 4 (RBBP4) (human) (UniProt Q09028); assay: anti-Flag immunoprecipitation from MOLM-13 cells with inducible Flag-tagged RNF5, LC-MS/MS (FIG. 5F)
[5] = target: endogenous retinoblastoma binding protein 4 (RBBP4) (human) (UniProt Q09028); assay: co-immunoprecipitation, MOLM-13 cells with doxycycline-inducible Flag-tagged RNF5, Western blot (FIG. 6D)
[6] = target: endogenous retinoblastoma binding protein 4 (RBBP4) (human) (UniProt Q09028); assay: co-immunoprecipitation (IP: Flag) and Western blot for endogenous RBBP4, MOLM-13 with doxycycline-inducible Flag-RNF5, MG132
[7] = target: Flag-tagged full-length RNF5 (WT) (UniProt Q99942); assay: co-immunoprecipitation (IP: Myc) and Western blot for Flag, HEK293T, MG132
[8] = target: Flag-tagged full-length RNF5 (WT) (UniProt Q99942); assay: reciprocal co-immunoprecipitation, HEK293T cells co-expressing Myc-RBBP4 and Flag-tagged RNF5-WT, Western blot (FIG. 6C)

Measured: binding

Flag-tagged RNF5 catalytically inactive RING domain mutant (RM) (from UniProt Q99942 1-180) (enzyme)
binds: [1] | [2]

Flag-tagged full-length RNF5 (WT) (from UniProt Q99942 1-180) (enzyme)
not listed: [7] | [8]
binds: all other assays above

Myc-tagged RBBP4 (from UniProt Q09028 1-425)
binds: [7] | [8]
